Assay results from PMC8900821.
Results are given in words; binding and its absence hold for the method and conditions named.

The chains behind the UniProt entries cited, without tags or fusion partners. Residues count along the entry.
UniProt P0DQD2, residues 36-392: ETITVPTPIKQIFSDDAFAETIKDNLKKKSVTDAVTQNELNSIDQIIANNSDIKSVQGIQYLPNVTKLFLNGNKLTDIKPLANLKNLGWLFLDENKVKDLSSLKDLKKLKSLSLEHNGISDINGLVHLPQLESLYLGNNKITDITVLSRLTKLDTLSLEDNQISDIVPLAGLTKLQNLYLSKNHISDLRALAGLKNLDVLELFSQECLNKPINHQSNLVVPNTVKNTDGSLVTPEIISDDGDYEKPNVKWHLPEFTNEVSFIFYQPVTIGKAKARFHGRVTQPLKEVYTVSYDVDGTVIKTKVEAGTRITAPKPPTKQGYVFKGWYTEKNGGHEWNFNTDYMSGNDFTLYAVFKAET

Molecular target: wild-type InlB392 (Listeria monocytogenes) (UniProt P0DQD2)
Experiment: crystal structure; packing of InlB392 alone in the crystals: three crystal forms, five crystallographically independent molecules; protein at 10 mg/ml in 10 mM Tris pH 8.0, 20 mM NaCl; both purified

With “wild-type InlB392 (from UniProt P0DQD2 36-392) (domain or fragment)” the binding was “no binding”.
